# Assay results taken from PubChem BioAssay AID1347075 (National Center for Advancing Translational Sciences (NCATS), 2019).
# About 5,500 (1.4%) of roughly 400,000 compounds were called active. This list was built around the results that the source calls inconclusive (neither active nor inactive); the mix of calls is not that of the screen. Calls come from the whole dose curve; as a rule, active = well fitted cell-killing curve with a large enough effect; inconclusive = small, poorly fitted or top-dose-only effect, or effect the other way; inactive = flat fitted curve, though single readings scatter. A potency beside an inconclusive call is a rough fit, not a confirmed value.
# Assay: qHTS assay for MDR1-selective chemotherapeutics: Primary screen using the parental adenocarcinoma cell KB-3-1; note: nearly all actives have a fitted effect of over 60% in size
# Details: KB-3-1 viability, CellTiter-Glo ATP luminescence, 72 h; series mostly up to 46.1 µM
# Procedure, shortened: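 Viability of parental KB-3-1 cells, measured by CellTiter-Glo luminescence, followed a 72 h incubation at 37 °C with pinned compounds in phenol-red-free DMEM containing 10% FBS.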
# Potency is the fitted concentration of half-maximal effect.
row,SMILES,Potency
1,COc1ccc(N2CCN(C(=O)Cn3c(=O)c4cccn4c4cccnc43)CC2)cc1,"inconclusive: 20.6 µM [cytotoxic, single point]"
2,Cc1ccc2cccc(NC(=O)c3cccc4c(Br)cccc34)c2n1,"inconclusive: 29.1 µM [cytotoxic, single point]"
3,C/C(=N\NC(=O)c1ccccc1)c1cc2cc([N+](=O)[O-])ccc2oc1=O,inactive
4,COc1ccccc1N1CCN(C(=O)c2ccc(CN3CCOCC3)cc2)CC1,inactive
5,Cc1ccnn1-c1ccc(C(=O)OCC(=O)Nc2ccc(F)cc2)cc1,"inconclusive: 11.6 µM [rising, partial curve, poor fit]"
6,CC(NC(=O)c1ccccc1)c1nnc(SCC(=O)NC2=NCCS2)n1C (stereo not given),"inconclusive: 8.2 µM [rising, partial curve, poor fit]"
7,O=Cc1ccc(/C=C2\C=Cc3ccccc32)cc1,"inconclusive: 23.1 µM [cytotoxic, partial curve, poor fit]"
8,CCN(CC(=O)Nc1ccc(NC(C)=O)cc1)C(=O)c1ccc(COc2ccc(C(C)(C)C)cc2)cc1,"inconclusive: 18.4 µM [cytotoxic, single point]"
9,CCCc1nc2ccc(Br)cn2c1Cc1cccc(Cl)c1,inactive
10,CCOc1ccc2nc(SCC3CC3(Cl)Cl)[nH]c2c1 (stereo not given),"inconclusive: 29.1 µM [cytotoxic, single point]"
11,CC(NC(=O)CCl)c1ccccc1Br (stereo not given),"inconclusive: 16.4 µM [cytotoxic, single point]"
12,COc1cnc(-c2ccccn2)nc1Sc1ccccc1Cl,"inconclusive: 16.4 µM [cytotoxic, single point]"
13,Nc1nnnn1/N=C/c1ccc(Br)cc1,inactive
14,Cn1c(=O)c2c(nc(CN3CCN(C(=O)c4ccco4)CC3)n2Cc2ccc(Cl)cc2)n(C)c1=O,inactive
15,Cc1cc(C)n(-c2nc3c(c(=O)[nH]c(=O)n3C)n2CC(O)COc2ccc(Cl)cc2Cl)n1 (stereo not given),active: 2.06 µM
16,CN(C)S(=O)(=O)c1ccc(NC(=O)N2CCN(c3cccc(C(F)(F)F)c3)CC2)cc1,"inconclusive: 23.1 µM [cytotoxic, single point]"
17,Clc1nc(CN2CCOCC2)nc2sc3c(c12)CCC3,inactive
18,COCCCn1[nH]c2c3c(ccc2c1=O)C(=O)c1ccccc1C3=O,"inconclusive: 16.4 µM [cytotoxic, single point]"
19,Cc1cc(NC(C)c2ccccc2)n2ncc(-c3ccccc3)c2n1 (stereo not given),"inconclusive: 20.6 µM [cytotoxic, single point]"
20,CC(Oc1ccc2c(c1)c1ccnc3c4ccccc4c(=O)n2c13)C(=O)NCCN1CCOCC1 (stereo not given),inactive
21,Cc1[nH]nc(N=CC2=C(O)CC(C)(C)CC2=O)c1-c1ccccc1,"inconclusive: 20.6 µM [cytotoxic, single point]"
22,O=C1NC[C@H](CCCCN2C[C@H](Cc3ccccc3)N(CC3CCCCC3)C(=O)C2=O)N(CC2CCCCC2)C1=O,inactive
23,O=C(CCCN1C(=O)/C(=C/c2ccccc2)SC1=S)Nc1ccccc1O,"inconclusive: 29.1 µM [cytotoxic, single point]"

row,SMILES,Potency
1,O=C(Oc1c(CN2CCOCC2)cc(Cl)c2cccnc12)c1ccccc1Br,"inconclusive: 23.1 µM [cytotoxic, single point]"
2,Cc1cc(NC(=O)NC(=O)c2ccccc2NC(=O)C(C)N)ccc1Oc1ncc(Br)cn1 (stereo not given),active: 0.231 µM
3,CN1C[C@@H]2[C@@H]3C(=O)N(Cc4ccccc4)C(=O)[C@@H]3[C@](Cc3ccccc3)(C1=O)N2C(=O)c1ccc(C(C)(C)C)cc1,"inconclusive: 25.9 µM [cytotoxic, single point]"
4,Nc1ccc2c(c1)C(=O)N(c1ccc3ccccc3c1)C2=O,inactive
5,COCc1nnc(NC(=O)c2ccc(OC)cc2OC)s1,"inconclusive: 11.6 µM [rising, partial curve, poor fit]"
6,CCc1ccccc1NS(=O)(=O)c1ccc2c(c1)CCCN2C(=O)C1CCC1,"inconclusive: 20.6 µM [cytotoxic, single point]"
7,COc1ccc(CCC(=O)Nc2nc3ccccc3[nH]2)cc1OC,inactive
8,C/C(O)=C\c1nc2ccccc2oc1=O,"inconclusive: 18.4 µM [cytotoxic, single point]"
9,Cn1c(NCc2ccccc2F)nc2cc(-c3ccccc3)sc2c1=O,"inconclusive: 29.1 µM [cytotoxic, partial curve, poor fit]"
10,Cc1cc(C)c(S(=O)(=O)N2CCCOC2CNC(=O)C(=O)NCCc2c[nH]c3ccccc23)c(C)c1 (stereo not given),inactive
11,Cc1ccc(C)c(NC2=NC3(CCCCC3)N=C(N)N2)c1,active: 18.4 µM
12,CCCCNc1nc2c(S(=O)(=O)c3ccccc3)nnn2c2ccccc12,inactive
13,COc1cccc(/C=C/C(=O)N2CCN(S(=O)(=O)c3ccccc3)CC2)c1,inactive
14,Cc1ccc(S(=O)(=O)N2C[C@H]3[C@H]4C(=O)N(c5ccccc5)C(=O)[C@H]4C[C@H](OC(=O)NCc4ccccc4F)[C@@]3(O)C2)cc1,inactive
15,COc1cccc(/C=N/NC(=O)C(=O)NCc2ccco2)c1OC,inactive
16,CCN(C(=O)Cn1c(=O)oc2cc(S(=O)(=O)N3CCCCC3)ccc21)c1ccccc1,"inconclusive: 29.1 µM [cytotoxic, single point]"
17,CC(NS(=O)(=O)c1ccc(F)cc1)C(=O)Nc1ccc2c(c1)OCCO2 (stereo not given),inactive
18,CCN(CC)CCCC(C)Nc1ccnc2cc(Cl)ccc12 (stereo not given),active: 10.3 µM
19,COc1cc(CNS(=O)(=O)c2ccc3c(c2)CC(C)N3C(C)=O)cc(OC)c1OC (stereo not given),"inconclusive: 18.4 µM [cytotoxic, single point]"
20,c1ccc(CCNc2ncnc3scc(C4COc5ccccc5O4)c23)cc1 (stereo not given),"inconclusive: 25.9 µM [cytotoxic, single point]"
21,CCOC(=O)C1=C(O)C(=O)NC(c2ccccc2)=C(OC2CCCCC2)C1,"inconclusive: 16.4 µM [cytotoxic, single point]"
22,COc1ccc(-c2csc(NC(=O)c3cccc(S(=O)(=O)N4CCN(C)CC4)c3)n2)cc1,inactive

# Among those listed so far, nine have an aryl methoxy group:
row,SMILES,Potency
1,COc1ccc(N2CCN(C(=O)Cn3c(=O)c4cccn4c4cccnc43)CC2)cc1,"inconclusive: 20.6 µM [cytotoxic, single point]"
4,COc1ccccc1N1CCN(C(=O)c2ccc(CN3CCOCC3)cc2)CC1,inactive
12,COc1cnc(-c2ccccn2)nc1Sc1ccccc1Cl,"inconclusive: 16.4 µM [cytotoxic, single point]"
5,COCc1nnc(NC(=O)c2ccc(OC)cc2OC)s1,"inconclusive: 11.6 µM [rising, partial curve, poor fit]"
7,COc1ccc(CCC(=O)Nc2nc3ccccc3[nH]2)cc1OC,inactive
13,COc1cccc(/C=C/C(=O)N2CCN(S(=O)(=O)c3ccccc3)CC2)c1,inactive
15,COc1cccc(/C=N/NC(=O)C(=O)NCc2ccco2)c1OC,inactive
19,COc1cc(CNS(=O)(=O)c2ccc3c(c2)CC(C)N3C(C)=O)cc(OC)c1OC (stereo not given),"inconclusive: 18.4 µM [cytotoxic, single point]"
22,COc1ccc(-c2csc(NC(=O)c3cccc(S(=O)(=O)N4CCN(C)CC4)c3)n2)cc1,inactive
